PubChem BioAssay AID1259254, NCATS | 2017
Here is an unselected part of about 59,000 deposited reagents. About 1,550 of them (2.6%) were called active. 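G2 share is only a proxy for re-replication; each gene was hit by three separate siRNAs, and active genes were retested.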 Reagents against one gene are numbered here. Further read-outs or replicates are left out here. Not stated in the record: the amount of reagent.

Screen: 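Genome-wide screen for genes that prevent DNA re-replication in cancer cells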 (primary screen)
Cells: human HCT116 colorectal cancer cells
Knock-down reagent: single siRNA against human genes
Timing: 3 days
Read-out: 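Imaged Hoechst DNA stain sorts each cell into a cycle phase by DNA amount; per plate, G2 fraction set to 0% for non-targeting and 100% for GMNN siRNA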
Direction: G2 robust z-score and G2 cells, % of GMNN control: higher = more G2 cells, more excess DNA replication
Rule for the call: 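An siRNA counts as active if its G2 robust z-score lies at least 5 MADs above the screen median; here such calls match roughly 38% of GMNN control or more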

ZNF816 (GeneID 125893) #1
- G2 robust z-score: -0.404
- G2 cells, % of GMNN control: 0.123
- call: inactive

ZNF816 (GeneID 125893) #2
- G2 robust z-score: -0.271
- G2 cells, % of GMNN control: 1.06
- call: inactive

ZNF816 (GeneID 125893) #3
- G2 robust z-score: 0.537
- G2 cells, % of GMNN control: 6.74
- call: inactive

TBC1D28 (GeneID 254272) #1
- G2 robust z-score: -0.927
- G2 cells, % of GMNN control: -3.56
- call: inactive

TBC1D28 (GeneID 254272) #2
- G2 robust z-score: 0.249
- G2 cells, % of GMNN control: 4.72
- call: inactive

TBC1D28 (GeneID 254272) #3
- G2 robust z-score: -0.539
- G2 cells, % of GMNN control: -0.827
- call: inactive

BUD13 (GeneID 84811) #1
- G2 robust z-score: 0.131
- G2 cells, % of GMNN control: 3.89
- call: inactive

BUD13 (GeneID 84811) #2
- G2 robust z-score: 0.489
- G2 cells, % of GMNN control: 6.41
- call: inactive

BUD13 (GeneID 84811) #3
- G2 robust z-score: -0.421
- G2 cells, % of GMNN control: 0.0069
- call: inactive

NUMBL (GeneID 9253) #1
- G2 robust z-score: 1.79
- G2 cells, % of GMNN control: 15.5
- call: inactive

NUMBL (GeneID 9253) #2
- G2 robust z-score: -1.37
- G2 cells, % of GMNN control: -6.64
- call: inactive

NUMBL (GeneID 9253) #3
- G2 robust z-score: -0.141
- G2 cells, % of GMNN control: 1.98
- call: inactive

TMEM135 (GeneID 65084) #1
- G2 robust z-score: 1.44
- G2 cells, % of GMNN control: 13.1
- call: inactive

TMEM135 (GeneID 65084) #2
- G2 robust z-score: 1.03
- G2 cells, % of GMNN control: 10.2
- call: inactive

TMEM135 (GeneID 65084) #3
- G2 robust z-score: 0.215
- G2 cells, % of GMNN control: 4.48
- call: inactive

OR2B6 (GeneID 26212) #1
- G2 robust z-score: -0.791
- G2 cells, % of GMNN control: -2.6
- call: inactive

OR2B6 (GeneID 26212) #2
- G2 robust z-score: -0.121
- G2 cells, % of GMNN control: 2.12
- call: inactive

OR2B6 (GeneID 26212) #3
- G2 robust z-score: -0.17
- G2 cells, % of GMNN control: 1.77
- call: inactive

GALNT3 (GeneID 2591) #1
- G2 robust z-score: 0.276
- G2 cells, % of GMNN control: 4.91
- call: inactive

GALNT3 (GeneID 2591) #2
- G2 robust z-score: 0.6
- G2 cells, % of GMNN control: 7.19
- call: inactive

GALNT3 (GeneID 2591) #3
- G2 robust z-score: -0.669
- G2 cells, % of GMNN control: -1.74
- call: inactive

EEF1AKMT3 (GeneID 25895) #1
- G2 robust z-score: 0.885
- G2 cells, % of GMNN control: 9.2
- call: inactive

EEF1AKMT3 (GeneID 25895) #2
- G2 robust z-score: 1.67
- G2 cells, % of GMNN control: 14.7
- call: inactive

EEF1AKMT3 (GeneID 25895) #3
- G2 robust z-score: -0.659
- G2 cells, % of GMNN control: -1.67
- call: inactive

FAM156A (GeneID 29057) #1
- G2 robust z-score: 0.435
- G2 cells, % of GMNN control: 6.03
- call: inactive

FAM156A (GeneID 29057) #2
- G2 robust z-score: -0.751
- G2 cells, % of GMNN control: -2.32
- call: inactive

FAM156A (GeneID 29057) #3
- G2 robust z-score: 0.0426
- G2 cells, % of GMNN control: 3.27
- call: inactive

MROH2A (GeneID 339766) #1
- G2 robust z-score: 0.0549
- G2 cells, % of GMNN control: 3.35
- call: inactive

MROH2A (GeneID 339766) #2
- G2 robust z-score: -0.557
- G2 cells, % of GMNN control: -0.949
- call: inactive

MROH2A (GeneID 339766) #3
- G2 robust z-score: 15.7
- G2 cells, % of GMNN control: 114
- call: active
